Data on twelve molecules can be found in the supplement of paper PMC4604168 (melanoma cell lines).

Among the test systems are WM115; WM1716; WM1745; WM3526; WM3619; WM451Lu.
Holding throughout (test): cleaved PARP positive nuclei fraction relative to DMSO control; melanoma cells; higher = more apoptosis
Details in all cases: library dose: low library concentration; 72 h

Structures are written as SMILES. The list shows a part of the results. Repeats are few or missing, and single values can be far off.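 Imaging used 1,536-well plates; nuclei positive for cleaved PARP by antibody were divided by total DNA-stained nuclei to yield the apoptosis fraction. Doses for screening kept most cells viable, and cell lines differ markedly in resting and induced cleaved-PARP levels.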

For the molecule `Cn1sc(=O)n(Cc2ccccc2)c1=O` + Cn1nnc2c(C(N)=O)ncn2c1=O [temozolomide] (first compound 0.4 µM, partner dose 2 µM), the “cleaved PARP positive nuclei fraction” value with WM115 was determined as 132%; in the experiment with WM1716, 91.4%; with WM1745 it was 97.1%; in the experiment on WM3526, 33.4%; in the experiment on WM3619 it was 92.9%; in the experiment on WM451Lu it was 49.3%.
As for `C[C@]1(O)C[C@@H](c2nc(-c3ccc4ccc(-c5ccccc5)nc4c3)c3c(N)nccn32)C1` + Oc1cc(-c2nc(-c3ccccc3)[nH]c2-c2ccncc2)ccc1Cl [L779450] (first compound 0.4 µM, partner dose 0.2 µM), the “cleaved PARP positive nuclei fraction” value with WM115 was 191%; in the experiment on WM1716 it was 84.4%; with WM1745 it was 113%; with WM3526 it was 181%; in the experiment with WM3619, 110%; in the experiment on WM451Lu, 68.1%.
Turning to `NC(=O)c1ccc(N(C(N)=O)c2c(F)cccc2F)nc1-c1ccc(F)cc1F` + CC(C)CCN1c2nc(Nc3cc(F)c(O)c(F)c3)ncc2N(C)C(=O)C1C [BID1870] (first compound 0.4 µM, partner dose 0.2 µM), the “cleaved PARP positive nuclei fraction” value in the experiment with WM115 worked out at 162%; in the experiment with WM1716 it was 44.4%; in the experiment on WM1745, 84.3%; with WM3526, 49.4%; in the experiment with WM3619, 142%; in the experiment on WM451Lu, 72.2%.
As to `CCCCCCCCc1ccc(CCC(N)(CO)CO)cc1` [fingolimod] + Cc1cc(Nc2cc(N3CCN(C)CC3)nc(/C=C/c3ccccc3)n2)n[nH]1 [ENMD2076] (first compound 2 µM, partner dose 0.04 µM), the “cleaved PARP positive nuclei fraction” value was found to be 108% in the experiment with WM115; 51.8% with WM1716; 126% in the experiment on WM1745; 87.9% in the experiment with WM3526; 108% in the experiment with WM3619; 28.2% in the experiment on WM451Lu.
Turning to `Cn1cnc2c(F)c(Nc3ccc(Br)cc3Cl)c(C(=O)NOCCO)cc21` [selumetinib] + NC(=O)Nc1cc(-c2cccc(F)c2)sc1C(=O)N[C@H]1CCCNC1 [AZD7762] (first compound 0.015 µM, partner dose 0.02 µM), the “cleaved PARP positive nuclei fraction” value was 160% with WM115; 65.8% in the experiment on WM1716; 100% in the experiment with WM1745; 70.4% in the experiment on WM3526; 150% in the experiment on WM3619; 26.1% with WM451Lu.
As to `CC(=O)O[C@@]12CO[C@@H]1C[C@H](O)[C@@]1(C)C(=O)[C@H](O)C3=C(C)[C@@H](OC(=O)[C@H](O)[C@@H](NC(=O)OC(C)(C)C)c4ccccc4)C[C@@](O)([C@@H](OC(=O)c4ccccc4)[C@H]21)C3(C)C` [Docetaxel] + NC(=O)Nc1cc(-c2cccc(F)c2)sc1C(=O)N[C@H]1CCCNC1 [AZD7762] (first compound 0.0001 µM, partner dose 0.02 µM), the “cleaved PARP positive nuclei fraction” value is 876% in the experiment with WM115; 1090% with WM1716; 152% with WM1745; 134% with WM3526; 267% with WM3619; 166% in the experiment on WM451Lu.
In the case of `CS(=O)(=O)c1ccc(C(=O)Nc2ccc(Cl)c(-c3ccccn3)c2)c(Cl)c1` [vismodegib] + CC1(C)NC(=O)N(c2ccc([N+](=O)[O-])c(C(F)(F)F)c2)C1=O [nilutamide] (first compound 1 µM, partner dose 1 µM), the “cleaved PARP positive nuclei fraction” value stood at 131% in the experiment on WM115; 80.8% with WM1716; 104% with WM1745; 50% with WM3526; 89.4% in the experiment with WM3619; 103% with WM451Lu.
Turning to `CC(=O)O[C@@]12CO[C@@H]1C[C@H](O)[C@@]1(C)C(=O)[C@H](O)C3=C(C)[C@@H](OC(=O)[C@H](O)[C@@H](NC(=O)OC(C)(C)C)c4ccccc4)C[C@@](O)([C@@H](OC(=O)c4ccccc4)[C@H]21)C3(C)C` [Docetaxel] + C=C(c1ccc(C(=O)O)cc1)c1cc2c(cc1C)C(C)(C)CCC2(C)C [Bexarotene] (first compound 0.0001 µM, partner dose 2 µM), the “cleaved PARP positive nuclei fraction” value was determined as 495% in the experiment with WM115; 73.1% with WM1716; 198% in the experiment on WM1745; 222% in the experiment with WM3526; 103% with WM3619; 212% with WM451Lu.
With `Cn1sc(=O)n(Cc2ccccc2)c1=O` + NC(=O)c1ccc(N(C(N)=O)c2c(F)cccc2F)nc1-c1ccc(F)cc1F [VX702] (first compound 0.4 µM, partner dose 0.4 µM), the “cleaved PARP positive nuclei fraction” value in the experiment with WM115 was 167%; in the experiment on WM1716, 43.4%; with WM1745, 104%; in the experiment with WM3526, 268%; with WM3619, 82.5%; in the experiment on WM451Lu, 50.6%.
On to `CCCCCCCCc1ccc(CCC(N)(CO)CO)cc1` [fingolimod] + COCC[n+]1c2c(n(Cc3cnccn3)c1C)C(=O)c1ccccc1C2=O [YM155] (first compound 2 µM, partner dose 0.0004 µM), for which the “cleaved PARP positive nuclei fraction” value in the experiment with WM115 was 229%; with WM1716, 46.1%; in the experiment with WM1745, 105%; in the experiment on WM3526 it was 200%; in the experiment with WM3619, 103%; in the experiment with WM451Lu it was 112%.
Take `Cn1sc(=O)n(Cc2ccccc2)c1=O` + OCc1c[nH]c2ccccc12 [Indole-3-carbinol] (first compound 0.4 µM, partner dose 0.8 µM): the “cleaved PARP positive nuclei fraction” value in the experiment on WM115 is 67.8%; in the experiment with WM1716, 121%; in the experiment with WM1745 it was 93.2%; in the experiment on WM3526, 195%; with WM3619, 115%; with WM451Lu, 81%.
Take `Cn1sc(=O)n(Cc2ccccc2)c1=O` + Cc1nc(Nc2ncc(C(=O)Nc3c(C)cccc3Cl)s2)cc(N2CCN(CCO)CC2)n1 [dasatanib] (first compound 0.4 µM, partner dose 0.004 µM): the “cleaved PARP positive nuclei fraction” value with WM115 was found to be 73.7%; in the experiment with WM1716 it was 44.6%; in the experiment on WM1745, 114%; in the experiment on WM3526 it was 173%; in the experiment on WM3619 it was 92.2%; in the experiment with WM451Lu, 196%.
